This data set deals with GST-VabHLH137. Kind of data set: EMSA. The settings on record: unlabeled probe used as competitor; EMSA per manufacturer's instructions (Thermo Scientific), biotin-labeled probe; pH and temperature not stated; recombinant protein; protein details: GST (pGEX4T-1); label: biotin.

For at least one entry, the source does not settle the construct or the ends of the probe.

As for “ATAAAGCACATGGAGTAT (double strand) [VaLAR2 promoter E-box probe]”, the binding result was “binds”.

Source of the values: article PMC9907051.
